Source: doi:10.1101/2023.08.22.554280

By UniProt entry, the sequences of proteins in these tests, tags left out.
UniProt Q8N3C0: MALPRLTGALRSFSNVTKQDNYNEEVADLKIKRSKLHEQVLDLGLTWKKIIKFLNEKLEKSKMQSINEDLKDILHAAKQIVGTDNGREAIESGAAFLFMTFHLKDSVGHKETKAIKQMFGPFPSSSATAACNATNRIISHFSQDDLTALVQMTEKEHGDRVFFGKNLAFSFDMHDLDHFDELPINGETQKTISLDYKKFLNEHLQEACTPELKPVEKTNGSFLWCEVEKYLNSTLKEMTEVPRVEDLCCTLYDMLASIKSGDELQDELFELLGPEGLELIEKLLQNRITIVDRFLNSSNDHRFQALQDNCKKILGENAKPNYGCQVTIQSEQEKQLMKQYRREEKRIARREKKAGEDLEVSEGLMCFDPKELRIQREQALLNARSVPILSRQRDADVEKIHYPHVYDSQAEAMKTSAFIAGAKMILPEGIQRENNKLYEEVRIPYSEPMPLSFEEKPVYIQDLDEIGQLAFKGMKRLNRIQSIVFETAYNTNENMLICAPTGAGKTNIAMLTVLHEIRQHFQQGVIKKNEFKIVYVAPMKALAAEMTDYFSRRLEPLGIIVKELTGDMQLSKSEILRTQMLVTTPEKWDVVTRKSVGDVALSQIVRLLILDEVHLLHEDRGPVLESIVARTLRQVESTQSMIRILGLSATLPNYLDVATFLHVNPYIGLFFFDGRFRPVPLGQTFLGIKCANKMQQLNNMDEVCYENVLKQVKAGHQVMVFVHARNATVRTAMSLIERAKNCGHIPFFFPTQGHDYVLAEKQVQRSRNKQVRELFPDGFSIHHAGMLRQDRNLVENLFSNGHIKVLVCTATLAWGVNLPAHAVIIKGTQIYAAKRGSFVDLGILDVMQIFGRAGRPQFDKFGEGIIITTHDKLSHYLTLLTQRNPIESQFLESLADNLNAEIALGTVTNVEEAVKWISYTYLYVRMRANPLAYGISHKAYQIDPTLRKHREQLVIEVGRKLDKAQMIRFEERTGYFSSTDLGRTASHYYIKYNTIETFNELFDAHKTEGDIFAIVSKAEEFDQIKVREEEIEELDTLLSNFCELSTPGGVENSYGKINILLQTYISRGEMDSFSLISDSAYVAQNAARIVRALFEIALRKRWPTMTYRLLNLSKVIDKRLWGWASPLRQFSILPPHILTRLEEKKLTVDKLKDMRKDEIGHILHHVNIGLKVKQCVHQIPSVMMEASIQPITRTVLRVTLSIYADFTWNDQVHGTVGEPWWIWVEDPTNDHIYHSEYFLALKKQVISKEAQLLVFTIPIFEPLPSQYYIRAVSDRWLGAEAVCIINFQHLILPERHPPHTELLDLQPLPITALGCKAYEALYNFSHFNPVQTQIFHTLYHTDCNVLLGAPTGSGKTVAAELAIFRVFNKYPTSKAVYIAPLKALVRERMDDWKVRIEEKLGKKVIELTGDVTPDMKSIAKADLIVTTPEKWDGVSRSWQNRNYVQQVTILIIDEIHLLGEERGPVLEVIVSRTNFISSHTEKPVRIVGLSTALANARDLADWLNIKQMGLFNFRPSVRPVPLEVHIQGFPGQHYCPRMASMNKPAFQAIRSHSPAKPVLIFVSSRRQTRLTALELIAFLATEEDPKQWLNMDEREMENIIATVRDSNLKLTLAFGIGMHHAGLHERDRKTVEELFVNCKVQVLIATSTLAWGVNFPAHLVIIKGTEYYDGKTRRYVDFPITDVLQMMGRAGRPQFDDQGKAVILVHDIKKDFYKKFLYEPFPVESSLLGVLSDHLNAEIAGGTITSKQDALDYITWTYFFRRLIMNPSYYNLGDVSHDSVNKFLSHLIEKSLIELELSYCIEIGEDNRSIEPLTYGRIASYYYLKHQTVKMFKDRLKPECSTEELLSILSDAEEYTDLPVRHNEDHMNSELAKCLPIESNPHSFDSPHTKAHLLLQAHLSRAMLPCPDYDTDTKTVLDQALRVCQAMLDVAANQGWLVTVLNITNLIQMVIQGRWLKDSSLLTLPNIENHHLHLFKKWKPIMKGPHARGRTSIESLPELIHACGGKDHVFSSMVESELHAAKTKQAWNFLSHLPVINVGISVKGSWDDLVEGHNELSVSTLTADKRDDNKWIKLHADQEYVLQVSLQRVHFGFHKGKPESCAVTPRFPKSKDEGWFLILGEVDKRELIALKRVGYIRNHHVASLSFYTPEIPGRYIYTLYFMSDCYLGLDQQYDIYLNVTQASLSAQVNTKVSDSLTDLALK
UniProt Q9Y520: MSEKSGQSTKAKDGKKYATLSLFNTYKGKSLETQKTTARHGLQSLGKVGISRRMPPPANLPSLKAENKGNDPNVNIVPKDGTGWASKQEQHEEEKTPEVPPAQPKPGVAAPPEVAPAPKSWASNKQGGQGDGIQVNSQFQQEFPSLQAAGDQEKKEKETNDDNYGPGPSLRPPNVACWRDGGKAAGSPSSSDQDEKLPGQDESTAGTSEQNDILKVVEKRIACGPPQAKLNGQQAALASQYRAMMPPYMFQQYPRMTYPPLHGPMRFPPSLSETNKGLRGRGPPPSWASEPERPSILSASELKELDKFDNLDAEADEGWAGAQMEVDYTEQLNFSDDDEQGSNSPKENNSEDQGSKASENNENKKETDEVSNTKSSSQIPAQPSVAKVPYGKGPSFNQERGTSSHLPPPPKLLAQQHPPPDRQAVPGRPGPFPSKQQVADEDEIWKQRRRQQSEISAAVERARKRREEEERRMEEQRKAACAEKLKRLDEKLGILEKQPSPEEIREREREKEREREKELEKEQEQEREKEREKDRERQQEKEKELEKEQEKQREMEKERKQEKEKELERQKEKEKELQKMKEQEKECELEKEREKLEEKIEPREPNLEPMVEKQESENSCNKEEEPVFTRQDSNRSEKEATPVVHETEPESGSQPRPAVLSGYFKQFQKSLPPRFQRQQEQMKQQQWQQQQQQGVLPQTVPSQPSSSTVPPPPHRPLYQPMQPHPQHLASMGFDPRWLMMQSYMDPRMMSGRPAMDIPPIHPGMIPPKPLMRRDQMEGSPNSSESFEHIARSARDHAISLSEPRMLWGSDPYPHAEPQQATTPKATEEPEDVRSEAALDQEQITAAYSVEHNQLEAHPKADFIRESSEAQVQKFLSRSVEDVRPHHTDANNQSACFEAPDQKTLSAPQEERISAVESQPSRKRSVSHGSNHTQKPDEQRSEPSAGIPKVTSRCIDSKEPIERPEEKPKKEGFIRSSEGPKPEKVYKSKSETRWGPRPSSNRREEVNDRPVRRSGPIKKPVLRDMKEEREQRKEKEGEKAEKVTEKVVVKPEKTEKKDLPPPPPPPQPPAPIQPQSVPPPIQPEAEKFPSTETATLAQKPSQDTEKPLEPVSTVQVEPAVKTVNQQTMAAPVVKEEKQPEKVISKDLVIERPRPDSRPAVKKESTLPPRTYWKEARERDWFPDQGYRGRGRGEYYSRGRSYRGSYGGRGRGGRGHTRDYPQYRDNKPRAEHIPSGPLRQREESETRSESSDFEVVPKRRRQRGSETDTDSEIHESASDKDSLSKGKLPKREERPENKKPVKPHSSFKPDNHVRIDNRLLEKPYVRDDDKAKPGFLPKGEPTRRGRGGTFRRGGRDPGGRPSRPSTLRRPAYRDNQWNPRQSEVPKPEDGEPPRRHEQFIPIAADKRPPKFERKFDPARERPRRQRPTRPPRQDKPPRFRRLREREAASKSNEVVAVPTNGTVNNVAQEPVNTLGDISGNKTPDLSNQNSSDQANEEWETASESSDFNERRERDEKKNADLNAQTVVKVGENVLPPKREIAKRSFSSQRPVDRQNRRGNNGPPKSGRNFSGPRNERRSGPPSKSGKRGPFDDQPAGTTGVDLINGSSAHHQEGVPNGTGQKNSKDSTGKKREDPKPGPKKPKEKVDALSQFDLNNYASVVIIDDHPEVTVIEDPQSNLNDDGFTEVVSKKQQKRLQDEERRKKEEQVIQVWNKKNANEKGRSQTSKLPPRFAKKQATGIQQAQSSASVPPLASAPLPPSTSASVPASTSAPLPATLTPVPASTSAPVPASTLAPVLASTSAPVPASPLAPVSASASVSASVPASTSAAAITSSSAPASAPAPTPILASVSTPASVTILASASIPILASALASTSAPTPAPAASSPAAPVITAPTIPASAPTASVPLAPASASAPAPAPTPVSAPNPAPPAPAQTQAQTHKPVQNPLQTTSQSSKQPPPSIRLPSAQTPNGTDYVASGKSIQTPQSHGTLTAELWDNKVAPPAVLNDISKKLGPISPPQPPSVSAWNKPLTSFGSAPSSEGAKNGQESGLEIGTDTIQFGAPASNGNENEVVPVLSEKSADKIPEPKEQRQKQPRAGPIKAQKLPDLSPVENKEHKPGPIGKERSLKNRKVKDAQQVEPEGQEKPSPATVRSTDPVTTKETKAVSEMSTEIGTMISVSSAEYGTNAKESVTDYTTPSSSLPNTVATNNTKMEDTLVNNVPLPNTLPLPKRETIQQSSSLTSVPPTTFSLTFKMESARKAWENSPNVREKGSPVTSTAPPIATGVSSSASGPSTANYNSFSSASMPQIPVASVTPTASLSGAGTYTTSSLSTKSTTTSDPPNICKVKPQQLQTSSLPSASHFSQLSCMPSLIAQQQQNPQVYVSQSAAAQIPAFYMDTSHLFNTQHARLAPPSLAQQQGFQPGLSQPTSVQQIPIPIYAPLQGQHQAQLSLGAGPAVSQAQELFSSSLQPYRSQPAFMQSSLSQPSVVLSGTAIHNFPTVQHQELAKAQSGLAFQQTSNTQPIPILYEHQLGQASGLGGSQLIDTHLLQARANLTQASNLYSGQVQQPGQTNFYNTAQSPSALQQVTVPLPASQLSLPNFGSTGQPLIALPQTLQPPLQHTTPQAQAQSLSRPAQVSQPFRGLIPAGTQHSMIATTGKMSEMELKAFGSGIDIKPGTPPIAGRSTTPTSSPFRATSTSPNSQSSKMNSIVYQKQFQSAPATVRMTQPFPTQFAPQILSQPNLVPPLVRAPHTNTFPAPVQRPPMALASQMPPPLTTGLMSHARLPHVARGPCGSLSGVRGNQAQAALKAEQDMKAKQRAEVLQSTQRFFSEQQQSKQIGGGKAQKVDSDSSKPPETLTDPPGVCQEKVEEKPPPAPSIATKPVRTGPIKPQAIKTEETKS
UniProt Q86US8: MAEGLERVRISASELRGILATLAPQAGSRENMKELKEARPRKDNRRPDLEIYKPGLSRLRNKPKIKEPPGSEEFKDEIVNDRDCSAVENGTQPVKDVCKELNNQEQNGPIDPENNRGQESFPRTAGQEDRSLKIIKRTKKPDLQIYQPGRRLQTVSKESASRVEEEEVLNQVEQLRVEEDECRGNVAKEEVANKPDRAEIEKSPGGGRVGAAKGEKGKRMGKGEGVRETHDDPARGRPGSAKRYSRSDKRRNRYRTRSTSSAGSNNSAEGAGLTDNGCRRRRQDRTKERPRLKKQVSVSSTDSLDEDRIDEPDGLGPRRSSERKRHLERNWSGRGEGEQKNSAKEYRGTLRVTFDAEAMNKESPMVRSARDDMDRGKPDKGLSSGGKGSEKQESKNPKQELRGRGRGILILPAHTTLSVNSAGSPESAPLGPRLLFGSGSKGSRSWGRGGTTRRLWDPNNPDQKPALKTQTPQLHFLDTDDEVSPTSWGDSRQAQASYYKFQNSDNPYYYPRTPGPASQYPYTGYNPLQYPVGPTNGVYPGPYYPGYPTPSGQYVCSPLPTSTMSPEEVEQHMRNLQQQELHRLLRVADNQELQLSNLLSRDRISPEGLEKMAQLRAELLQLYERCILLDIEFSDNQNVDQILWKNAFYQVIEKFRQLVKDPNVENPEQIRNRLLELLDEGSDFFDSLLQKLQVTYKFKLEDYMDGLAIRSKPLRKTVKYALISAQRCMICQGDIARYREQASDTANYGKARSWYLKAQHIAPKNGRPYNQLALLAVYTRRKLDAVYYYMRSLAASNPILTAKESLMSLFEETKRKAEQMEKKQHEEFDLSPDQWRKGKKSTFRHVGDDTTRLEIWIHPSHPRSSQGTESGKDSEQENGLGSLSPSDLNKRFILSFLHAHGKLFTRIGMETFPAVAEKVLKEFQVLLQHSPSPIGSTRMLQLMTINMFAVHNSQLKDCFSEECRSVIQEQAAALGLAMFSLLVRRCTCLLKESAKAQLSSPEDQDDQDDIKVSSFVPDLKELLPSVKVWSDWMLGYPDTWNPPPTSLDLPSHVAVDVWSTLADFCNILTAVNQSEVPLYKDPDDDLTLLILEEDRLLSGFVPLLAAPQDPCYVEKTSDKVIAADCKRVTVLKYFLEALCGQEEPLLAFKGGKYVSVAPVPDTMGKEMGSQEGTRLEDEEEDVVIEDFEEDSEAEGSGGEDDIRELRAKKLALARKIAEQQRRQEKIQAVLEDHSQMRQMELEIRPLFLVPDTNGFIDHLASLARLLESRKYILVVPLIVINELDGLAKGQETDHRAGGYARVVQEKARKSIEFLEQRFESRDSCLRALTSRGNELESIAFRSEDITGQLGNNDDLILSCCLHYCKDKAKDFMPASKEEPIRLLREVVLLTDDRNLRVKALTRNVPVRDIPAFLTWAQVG

T1: Flag-tagged EIF4G2 WT (human), P78344
T1 chain: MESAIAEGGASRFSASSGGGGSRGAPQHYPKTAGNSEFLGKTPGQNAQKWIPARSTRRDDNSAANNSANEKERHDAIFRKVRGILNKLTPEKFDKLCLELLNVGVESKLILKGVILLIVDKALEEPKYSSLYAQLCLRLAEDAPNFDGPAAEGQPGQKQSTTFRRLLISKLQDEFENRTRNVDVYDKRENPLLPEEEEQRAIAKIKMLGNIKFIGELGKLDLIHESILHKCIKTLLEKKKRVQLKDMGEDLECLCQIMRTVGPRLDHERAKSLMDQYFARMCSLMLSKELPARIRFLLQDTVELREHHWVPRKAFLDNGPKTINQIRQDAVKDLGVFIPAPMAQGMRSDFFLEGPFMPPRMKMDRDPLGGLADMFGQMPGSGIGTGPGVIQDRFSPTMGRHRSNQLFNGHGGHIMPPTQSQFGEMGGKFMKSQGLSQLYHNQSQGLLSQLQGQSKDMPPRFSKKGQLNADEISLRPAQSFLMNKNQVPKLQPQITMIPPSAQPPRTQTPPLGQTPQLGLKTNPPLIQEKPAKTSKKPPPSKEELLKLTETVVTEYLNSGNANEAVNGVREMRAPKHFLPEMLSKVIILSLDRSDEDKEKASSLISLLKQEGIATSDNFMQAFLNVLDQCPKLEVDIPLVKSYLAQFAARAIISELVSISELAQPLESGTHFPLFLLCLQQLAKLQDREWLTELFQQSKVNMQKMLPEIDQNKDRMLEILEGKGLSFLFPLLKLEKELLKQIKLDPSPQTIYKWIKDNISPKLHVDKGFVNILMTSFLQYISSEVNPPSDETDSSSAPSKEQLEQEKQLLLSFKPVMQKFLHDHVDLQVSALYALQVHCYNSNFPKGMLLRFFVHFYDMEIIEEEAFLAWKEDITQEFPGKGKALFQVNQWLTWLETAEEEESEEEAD

B1: PDCD4, Q53EL6 1-469 (protein)
chain: MDVENEQILNVNPADPDNLSDSLFSGDEENAGTEEIKNEINGNWISASSINEARINAKAKRRLRKNSSRDSGRGDSVSDSGSDALRSGLTVPTSPKGRLLDRRSRSGKGRGLPKKGGAGGKGVWGTPGQVYDVEEVDVKDPNYDDDQENCVYETVVLPLDERAFEKTLTPIIQEYFEHGDTNEVAEMLRDLNLGEMKSGVPVLAVSLALEGKASHREMTSKLLSDLCGTVMSTTDVEKSFDKLLKDLPELALDTPRAPQLVGQFIARAVGDGILCNTYIDSYKGTVDCVQARAALDKATVLLSMSKGGKRKDSVWGSGGGQQSVNHLVKEIDMLLKEYLLSGDISEAEHCLKELEVPHFHHELVYEAIIMVLESTGESTFKMILDLLKSLWKSSTITVDQMKRGYERIYNEIPDINLDVPHSYSVLERFVEECFQAGIISKQLRDLCPSRGRKRFVSEGDGGRLKPESY
B2: ASCC2 (protein, UniProt Q9H1I8 1-757)
chain: MPALPLDQLQITHKDPKTGKLRTSPALHPEQKADRYFVLYKPPPKDNIPALVEEYLERATFVANDLDWLLALPHDKFWCQVIFDETLQKCLDSYLRYVPRKFDEGVASAPEVVDMQKRLHRSVFLTFLRMSTHKESKDHFISPSAFGEILYNNFLFDIPKILDLCVLFGKGNSPLLQKMIGNIFTQQPSYYSDLDETLPTILQVFSNILQHCGLQGDGANTTPQKLEERGRLTPSDMPLLELKDIVLYLCDTCTTLWAFLDIFPLACQTFQKHDFCYRLASFYEAAIPEMESAIKKRRLEDSKLLGDLWQRLSHSRKKLMEIFHIILNQICLLPILESSCDNIQGFIEEFLQIFSSLLQEKRFLRDYDALFPVAEDISLLQQASSVLDETRTAYILQAVESAWEGVDRRKATDAKDPSVIEEPNGEPNGVTVTAEAVSQASSHPENSEEEECMGAAAAVGPAMCGVELDSLISQVKDLLPDLGEGFILACLEYYHYDPEQVINNILEERLAPTLSQLDRNLDREMKPDPTPLLTSRHNVFQNDEFDVFSRDSVDLSRVHKGKSTRKEENTRSLLNDKRAVAAQRQRYEQYSVVVEEVPLQPGESLPYHSVYYEDEYDDTYDGNQVGANDADSDDELISRRPFTIPQVLRTKVPREGQEEDDDDEEDDADEEAPKPDHFVQDPAVLREKAEARRMAFLAKKGYRHDSSTAVAGSPRGHGQSRETTQERRKKEANKATRANHNRRTMADRKRSKGMIPS
B3: TSR1 (protein, UniProt Q2NL82 1-804)
chain: MAAHRPGPLKQQNKAHKGGRHRGRGSAQRDGKGRLALKTLSKKVRKELSRVDQRHRASQLRKQKKEAVLAEKRQLGGKDGPPHQVLVVPLHSRISLPEAMQLLQDRDTGTVHLNELGNTQNFMLLCPRLKHRWFFTSARPGDLHVVLDMAKVADTILFLLDPLEGWDSTGDYCLSCLFAQGLPTYTLAVQGISGLPLKKQIDTRKKLSKAVEKRFPHDKLLLLDTQQEAGMLLRQLANQKQQHLAFRDRRAYLFAHAVDFVPSEENNLVGTLKISGYVRGQTLNVNRLLHIVGYGDFQMKQIDAPGDPFPLNPRGIKPQKDPDMAMEICATDAVDDMEEGLKVLMKADPGRQESLQAEVIPDPMEGEQTWPTEEELSEAKDFLKESSKVVKKVPKGTSSYQAEWILDGGSQSGGEGDEYEYDDMEHEDFMEEESQDESSEEEEEYETMTIGESVHDDLYDKKVDEEAEAKMLEKYKQERLEEMFPDEVDTPRDVAARIRFQKYRGLKSFRTSPWDPKENLPQDYARIFQFQNFTNTRKSIFKEVEEKEVEGAEVGWYVTLHVSEVPVSVVECFRQGTPLIAFSLLPHEQKMSVLNMVVRRDPGNTEPVKAKEELIFHCGFRRFRASPLFSQHTAADKHKLQRFLTADMALVATVYAPITFPPASVLLFKQKSNGMHSLIATGHLMSVDPDRMVIKRVVLSGHPFKIFTKMAVVRYMFFNREDVLWFKPVELRTKWGRRGHIKEPLGTHGHMKCSFDGKLKSQDTVLMNLYKRVFPKWTYDPYVPEPVPWLKSEISSTVPQGGME

Experiments:
[1] = target: Flag-tagged EIF4G2 WT (human) (UniProt P78344); assay: affinity purification with mass spectrometry
[2] = target: T1, Flag-tagged EIF4G2 WT (human), P78344; assay: affinity purification with mass spectrometry; settings: remark: other sources report otherwise

| Molecule | binding [1] | binding [2] |
| --- | --- | --- |
| PRRC2A (from UniProt P48634 1-2157) | binds |  |
| ASCC3 (from UniProt Q8N3C0 1-2202) | binds |  |
| EIF3J (from UniProt O75822 1-258) | binds |  |
| PRRC2C (from UniProt Q9Y520 1-2896) | binds |  |
| SMG6 (from UniProt Q86US8 1-1419) | binds |  |
| B1 |  | binds |
| B2 | binds |  |
| B3 | binds |  |

These are yes or no findings as the source states them, for the method shown. In cells and extracts the contact can be indirect. A yes stands for co-enrichment or nearness to the bait. Other partners may have been found. For some assays here: Tags and fused reporters may be left off the sequences shown.
